Numbering of substitutions follows the chain as printed. These are yes or no findings as the source states them, for the method shown. In cells and extracts the contact can be indirect. Some results given as binding are weak or reduced against the parent protein; the word gives no strength.
Columns and labels:
Test in all cases: co-IP
[1] = target: T1, hUBE2O H1130A (human) (UniProt Q9C0C9)
T1 sequence: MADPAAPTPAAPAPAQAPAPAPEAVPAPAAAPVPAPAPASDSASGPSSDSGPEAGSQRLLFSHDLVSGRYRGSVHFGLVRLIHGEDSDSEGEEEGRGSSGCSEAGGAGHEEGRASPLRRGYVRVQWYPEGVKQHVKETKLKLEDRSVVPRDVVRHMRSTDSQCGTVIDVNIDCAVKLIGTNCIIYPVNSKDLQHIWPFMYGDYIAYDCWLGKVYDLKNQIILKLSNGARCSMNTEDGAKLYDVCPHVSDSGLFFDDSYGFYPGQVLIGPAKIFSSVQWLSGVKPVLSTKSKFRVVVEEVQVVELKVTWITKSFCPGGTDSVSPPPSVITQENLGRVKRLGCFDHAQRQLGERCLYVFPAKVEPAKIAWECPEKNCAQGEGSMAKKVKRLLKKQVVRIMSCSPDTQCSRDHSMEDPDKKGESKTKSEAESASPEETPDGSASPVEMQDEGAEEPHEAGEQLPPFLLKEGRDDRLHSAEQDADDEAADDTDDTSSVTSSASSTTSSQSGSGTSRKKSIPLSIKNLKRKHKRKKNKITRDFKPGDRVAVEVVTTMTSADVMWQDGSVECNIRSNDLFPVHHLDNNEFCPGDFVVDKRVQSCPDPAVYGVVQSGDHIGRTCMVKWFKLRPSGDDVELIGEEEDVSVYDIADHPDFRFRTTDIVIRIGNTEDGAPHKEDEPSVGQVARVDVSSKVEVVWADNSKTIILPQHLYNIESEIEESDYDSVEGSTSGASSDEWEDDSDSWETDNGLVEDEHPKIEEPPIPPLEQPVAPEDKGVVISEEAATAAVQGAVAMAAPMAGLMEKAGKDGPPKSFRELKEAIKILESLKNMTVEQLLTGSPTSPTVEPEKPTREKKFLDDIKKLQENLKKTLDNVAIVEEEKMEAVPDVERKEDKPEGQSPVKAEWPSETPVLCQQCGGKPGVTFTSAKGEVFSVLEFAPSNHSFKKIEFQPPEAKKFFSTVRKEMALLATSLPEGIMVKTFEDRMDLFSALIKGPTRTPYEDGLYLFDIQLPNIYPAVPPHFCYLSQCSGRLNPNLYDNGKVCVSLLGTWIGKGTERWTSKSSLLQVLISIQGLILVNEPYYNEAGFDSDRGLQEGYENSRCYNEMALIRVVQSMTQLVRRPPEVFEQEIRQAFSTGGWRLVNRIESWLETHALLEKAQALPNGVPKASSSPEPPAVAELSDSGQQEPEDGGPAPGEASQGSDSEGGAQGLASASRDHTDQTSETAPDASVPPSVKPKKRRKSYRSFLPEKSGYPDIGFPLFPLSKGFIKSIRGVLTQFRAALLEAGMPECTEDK

[2] = target: T2, hUBE2O H939A (human) (UniProt Q9C0C9)
T2 sequence: T1 sequence with H939A, A1130H

[3] = target: T3, hUBE2O T995A (human) (UniProt Q9C0C9)
T3 sequence: T1 sequence with T995A, A1130H

binding [1]: binds
binding [2]: binds
binding [3]: binds
B1: Flag-UBE2O-TwinStrep (recombinant Homo sapiens UBE2O, purified) (enzyme, human, UniProt Q9C0C9 1-1292, looked up)
chain: T1 sequence with A1130H
